Measured values as given in article PMC6350405.
Results are given in words; binding and its absence hold for the method and conditions named. In cells and extracts the contact can be indirect. Some results given as binding are weak or reduced against the parent protein; the word gives no strength.

Sequences of proteins named here, by UniProt entry; tags and fusion partners are left off.
UniProt Q07812: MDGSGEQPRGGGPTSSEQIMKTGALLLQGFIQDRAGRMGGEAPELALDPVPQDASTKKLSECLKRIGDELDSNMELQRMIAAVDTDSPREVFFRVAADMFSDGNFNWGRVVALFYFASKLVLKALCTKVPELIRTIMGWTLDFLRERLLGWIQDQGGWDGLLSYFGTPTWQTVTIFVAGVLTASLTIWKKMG
UniProt O00429: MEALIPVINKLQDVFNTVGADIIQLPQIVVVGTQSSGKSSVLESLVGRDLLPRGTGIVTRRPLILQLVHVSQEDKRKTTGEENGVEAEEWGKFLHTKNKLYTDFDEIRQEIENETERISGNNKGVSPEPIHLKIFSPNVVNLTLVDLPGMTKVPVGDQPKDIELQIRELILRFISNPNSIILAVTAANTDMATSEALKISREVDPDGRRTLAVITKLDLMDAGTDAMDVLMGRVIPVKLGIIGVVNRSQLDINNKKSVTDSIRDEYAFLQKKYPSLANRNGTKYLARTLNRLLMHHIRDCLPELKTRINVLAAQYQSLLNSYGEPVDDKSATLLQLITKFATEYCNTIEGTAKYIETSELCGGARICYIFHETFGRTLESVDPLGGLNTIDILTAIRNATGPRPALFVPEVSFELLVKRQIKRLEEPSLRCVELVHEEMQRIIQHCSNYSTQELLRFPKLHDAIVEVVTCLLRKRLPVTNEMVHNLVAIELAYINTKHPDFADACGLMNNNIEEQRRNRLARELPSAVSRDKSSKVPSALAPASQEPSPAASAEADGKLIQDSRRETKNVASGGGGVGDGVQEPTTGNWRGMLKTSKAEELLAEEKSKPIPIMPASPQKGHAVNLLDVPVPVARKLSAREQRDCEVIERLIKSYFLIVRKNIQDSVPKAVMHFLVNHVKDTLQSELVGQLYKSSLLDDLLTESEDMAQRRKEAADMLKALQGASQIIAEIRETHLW

Biological target: Bcl-2-associated X protein (human (endogenous in 143B and MG63)) (UniProt Q07812)
Assay: co-IP; proteins extracted from CPT-treated 143B and MG63 cells (time course of CPT treatment); IP with Bax antibody; Drp1 and Bax detected by Western blotting

binding: binds
Substance: dynamin-related protein 1 (from UniProt O00429 1-736)
